Reference: paper PMC5944969, “Characterization of a nontypeable Haemophilus influenzae thermonuclease” (PLoS ONE, 2018)
Results are given in words; binding and its absence hold for the method and conditions named.

Legend:
[1] = biological target: NTHi nuclease (nontypeable Haemophilus influenzae thermonuclease), without signal sequence (nontypeable Haemophilus influenzae (strain 2019)) (UniProt Q57519); assay: condition: 1.2–3.7 mg/ml at pH 7; 0.4–1.2 mg/ml at pH 9; SAXS; SIBYLS beamline, 10°C; 100 mM Tris pH 7 or 9, 150 mM NaCl, 5 mM CaCl, 5 mM DTT; Rg from Guinier analysis compared with Rg of the homology model (CRYSOL); both purified
[2] = biological target: NTHi nuclease (nontypeable Haemophilus influenzae thermonuclease), without signal sequence (nontypeable Haemophilus influenzae (strain 2019)) (UniProt Q57519); assay: static light scattering; DynaPro NanoStar, 2 ul quartz cuvette, sample filtered through 0.02 um; pH 7; molecular weight from SLS; both purified

B1: NTHi nuclease (nontypeable Haemophilus influenzae thermonuclease), without signal sequence (enzyme, UniProt Q57519 21-178)
chain: CSREKNTCRVVKISDGDTLTCLTKGNKSIKVRLAEIDAPEKSQAFGQKSKKTLSDLVYQKNVRLARKGKDRYQRTLAVVYYQKQNINLEMVKQGMAWAYKQYSHDPIYLQAQENAQAKGIGLWADNNPIEPSQWRRQEKINMAFDYQTFPSSISLFPT
- binding [1]: no binding
- binding [2]: no binding
